The source of these data is publication PMC5414855 (Toxicological Sciences, 2017).

By EC50 is commonly meant the concentration needed to bring the measured effect to its halfway point. Read a low EC50 as greater potency.

The assay deals with zebrafish embryos. Kind of assay: animal or person. The note with it: Danio rerio.

Turning to `O=[N+]([O-])c1ccc2ccc3ccc([N+](=O)[O-])c4ccc1c2c34` [1,8-dinitropyrene], the midpoint of the response, the EC50, lay at 3.33 µM.
